Test: Organic thin film transistor (OTFT) device characterization
Settings: gold top electrodes; for Mobility: hole mobility; for Mobility / On/Off ratio: semiconductor/polystyrene blend knife coated from n-butylbenzene on HMDS-treated Si wafer, Vg +10 to −40 V, Vds −40 V, ambient; for Hole mobility μ: semiconductor/polystyrene blend knife coated from n-butylbenzene on HMDS-treated substrate, saturation mobility from Id^1/2−Vg fit

With `CCc1ccc(-c2ccc3c(C#C[Si](C(C)C)(C(C)C)C(C)C)c4cc(-c5ccc(CC)s5)ccc4c(C#C[Si](C(C)C)(C(C)C)C(C)C)c3c2)s1` [Example 4, 2,6-Bis(5-ethyl-thiophene-2-yl)-9,10-bis-[(triisopropylsilyl)ethynyl]anthracene] the Mobility was 0.003 cm^2/V • s, the On/Off ratio (listed as B5ET-TIPS-An) was 2×10^3 and the “Hole mobility μ” value was 0.003 cm^2/Vs.

In the case of `CC(C)[Si](C#Cc1c2ccc(-c3ccc(C=O)s3)cc2c(C#C[Si](C(C)C)(C(C)C)C(C)C)c2ccc(-c3ccc(C=O)s3)cc12)(C(C)C)C(C)C` [Example 9, 2,6-Bis(5-formyl-thiophene-2-yl)-9,10-bis-[(triisopropylsilyl)ethynyl]anthracene], the Mobility is reported as 0.01 cm^2/V • s, the On/Off ratio (listed as B5FT-TIPS-An) is reported as 1×10^2 and the “Hole mobility μ” value is reported as 0.01 cm^2/Vs.

With `CCCCCCc1ccc(-c2ccc3c(C#C[Si](C(C)C)(C(C)C)C(C)C)c4cc(-c5ccc(CCCCCC)s5)ccc4c(C#C[Si](C(C)C)(C(C)C)C(C)C)c3c2)s1` [Example 6, 2,6-Bis(5-hexyl-thiophene-2-yl)-9,10-bis-[(triisopropylsilyl)ethynyl]anthracene] the Mobility was 0.013 cm^2/V • s, the On/Off ratio (listed as B5HT-TIPS-An) was 3×10^3 and the “Hole mobility μ” value was 0.013 cm^2/Vs.

For `Cc1ccc(-c2ccc3c(C#C[Si](C(C)C)(C(C)C)C(C)C)c4cc(-c5ccc(C)s5)ccc4c(C#C[Si](C(C)C)(C(C)C)C(C)C)c3c2)s1` [Example 2, 2,6-Bis(5-methyl-thiophene-2-yl)-9,10-bis-[(triisopropylsilyl)ethynyl]anthracene], the Mobility was 0.12 cm^2/V • s, the On/Off ratio (listed as B5MT-TIPS-An) was 1×10^4 and the “Hole mobility μ” value was 0.12 cm^2/Vs.

For `CC(C)[Si](C#Cc1c2ccc(-c3cccs3)cc2c(C#C[Si](C(C)C)(C(C)C)C(C)C)c2ccc(-c3cccs3)cc12)(C(C)C)C(C)C` [Example 1, 2,6-Bis(thiophene-2-yl)-9,10-bis-[(triisopropylsilyl)ethynyl]anthracene], the Mobility was 0.22 cm^2/V • s, the On/Off ratio (listed as BT-TIPS-An) was 2×10^5 and the “Hole mobility μ” value was 0.22 cm^2/Vs.

In the case of `CC(C)[Si](C#Cc1c2ccc(-c3ccc(-c4cccs4)s3)cc2c(C#C[Si](C(C)C)(C(C)C)C(C)C)c2ccc(-c3ccc(-c4cccs4)s3)cc12)(C(C)C)C(C)C` [Example 8, 2,6-Bis(2,2′-bithiophene-5-yl)-9,10-bis-[(triisopropylsilyl)ethynyl]anthracene], the Mobility is reported as 0.07 cm^2/V • s, the On/Off ratio (listed as B5TT-TIPS-An) is reported as 5×10^3 and the “Hole mobility μ” value is reported as 0.07 cm^2/Vs.

With `CCCc1ccc(-c2ccc3c(C#C[Si](C(C)C)(C(C)C)C(C)C)c4cc(-c5ccc(CCC)s5)ccc4c(C#C[Si](C(C)C)(C(C)C)C(C)C)c3c2)s1` [Example 5, 2,6-Bis(5-propyl-thiophene-2-yl)-9,10-bis-[(triisopropylsilyl)ethynyl]anthracene] the Mobility was 0.0018 cm^2/V • s, the On/Off ratio (listed as B5PT-TIPS-An) was 1×10^3 and the “Hole mobility μ” value was 1.8×10^−3 cm^2/Vs.
